Assay results reported in publication PMC5302413, “Bifunctional peptide-based opioid agonist/nociceptin antagonist ligand for dual treatment of nociceptive and neuropathic pain” (Pain, 2016).
Structures can show the parent of a compound that is named as a salt.

How the values were obtained:
[1] = tested on: Sprague-Dawley rats; experiment: Hot-plate test, thermal nociception in rats; format: in vivo, rat; details: IV 17.52 μmol/kg morphine (vs controls), 0.34 μmol/kg KGNOP1 (vs morphine)
Experimental: The individual rats were kept inside a transparent cylinder on the heated surface of the plate (52.0°C ± 0.2°C; Panlab).[27] Licking, brisk shaking of the hind paw, and jumping were considered as signs of thermal nociception. The cut-off time was set at 60 seconds. The first measurement was performed after a 10-minute period of accommodation while the animal was quiet. Drugs were intravenously (IV) administered at T0. Thermal nociception was recorded at −30, −15, −5, 5, 10, 15, 30, 45, 60, 90, 120, 180, 240, 300, 360, and 420 minutes (study 2A). […] The maximum possible effect (MPE%) was calculated based on the following equation: [drawing 2]
The pharmacological model was applied to the investigated drug effects using the maximum likelihood expectation maximization algorithm implemented in WinNonlin (Version 5.1; Pharsight, Princeton, NJ). A standard error variance model was defined as: [drawing 4] where yi is the ith predicted value from the pharmacological model. All model parameters were assumed to be log-normally distributed. […] Estimated parameters for dose–effect relationships are expressed as mean (CV%).
Thermal nociception was measured during 420 minutes after the drug administration. Tmax was determined for each drug. […]

[2] = tested on: Sprague-Dawley rats; experiment: Whole-body plethysmography, respiratory effects in rats; details: IV, time-course study 3A

CN1CC[C@]23c4c5ccc(O)c4O[C@H]2[C@@H](O)C=C[C@H]3[C@H]1C5 [Morphine, Morphine sulfate, reference compound]
MPE%, AUC method [1]: significantly increased | Peak of respiratory effects (time) [2]: 30 min | TI, AUC method, in comparison to controls [2]: significantly increased
